Experimental data taken from PubChem BioAssay AID493014 (National Center for Advancing Translational Sciences (NCATS), 2011).
Some of the results follow. These are further read-outs of the screen, such as a control signal, another cell line or another target. No call is given for them. The list favours compounds with an active or inconclusive main result. Potencies come from curve fits of mixed quality, noted in brackets.

Experiment: qHTS Assay to Find Inhibitors of Chronic Active B-Cell Receptor Signaling
Settings: ABC-DLBCL IkBa-CBG/CBR reporter, luminescence ratio (green luciferase fused to IkBa over red control in TMD8 lymphoma cells), 4 h
Summary of the method: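 Compounds up to 46 uM were incubated four hours with TMD8 cells whose green CBG68 luciferase is fused to IkappaBalpha; red CBR luminescence normalised the signal, and concentration-effect curves were fitted to fusion, red and ratio data.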

[1] = measured here: CBR red luminescence, cell number
[2] = measured here: IkBa-CBG green luminescence

Structure (SMILES)	AC50 [1]	AC50 [2]
CC(C)(C)n1cnc2cc(NC(=O)c3ccco3)ccc21	12.6 µM [falling, single point]	
CC(C)c1nccn1S(=O)(=O)c1cc(Cl)ccc1Cl	32.6 µM [falling, single point]	
COc1ccc(Nc2nnc(SCC(=O)Nc3cc(C)on3)s2)cc1	10.3 µM [rising, single point]	
CCCc1ccc(-c2csc(NC(=O)C3=COCCO3)n2)cc1	0.92 µM [rising, full curve, poor fit]	
COc1cccc(NC(=O)CCc2ccccc2)c1	11.6 µM [falling, partial curve, poor fit]	
O=C(Nc1ccc2oc(=O)ccc2c1)c1ccco1	17.8 µM [falling, single point]	
COc1ccc(C)cc1NC(=O)CN(Cc1nnc(-c2ccc(Cl)cc2)o1)C1CCCC1	4.11 µM [rising, single point]	
COc1ccc(Cl)cc1S(=O)(=O)NC(C)C(=O)NCc1ccccn1 (stereo not given)	0.708 µM [rising, full curve, poor fit]	
O=C(CSc1ncccn1)NC(=O)Nc1ccc2c(c1)OCCO2	20 µM [falling, single point]	
Cc1ccc(C(=O)NCCN2C3=NC[C@H](C)N3C[C@H]2Cc2ccc(O)cc2)cc1Br	35.5 µM [falling, single point]	
C#CCOCCOCCOCCNc1nc(N2CCN(C(=O)CCCCCCCCCCNC(=O)[C@H](CCCCN)n3cc(C[C@@H](C)CC)nn3)CC2)nc(N2CCN(C(=O)CCCCCCCCCCNC(=O)[C@@H]([C@H](C)O)n3cc(C)nn3)CC2)n1	29.1 µM [rising, single point]	
Oc1ccc2ccccc2c1C=Nc1ccc(N2CCOCC2)cc1	0.651 µM [falling, full curve, poor fit]	
COc1cc(/C=N/NC(=O)[C@H](Cc2c[nH]c3ccccc23)NC(=O)OCC(C)C)cc([N+](=O)[O-])c1O	23.1 µM [rising, single point]	18.4 µM [falling, single point]
Cc1cc(C)cc(N(CC(=O)N2CC=C(c3ccccc3)CC2)S(=O)(=O)c2c(C)noc2C)c1	9.2 µM [falling, partial curve]	
CN(C(=S)NC(=O)c1ccc(Cl)cc1)C1CCCCC1	25.1 µM [falling, single point]	
CN(C)c1ccc(/C=N\NC(=O)c2cccc3cc[nH]c23)cc1	28.2 µM [falling, partial curve, poor fit]	
O=C(COC(=O)c1ccc(O)cc1O)Nc1ccc2ccccc2c1	16.4 µM [falling, partial curve, poor fit]	
COc1cccc(N2CCN(C(=O)c3ccc4ccccc4c3)CC2)c1	20.6 µM [falling, single point]	
Cc1cccc(C(=O)OCC(=O)c2ccc3c(c2)OCCO3)c1O	1.16 µM [rising, single point]	
Cc1c(C(=O)O)c2cc(O)ccc2n1-c1ccccc1	1.46 µM [rising, partial curve, poor fit]	
Cc1nc2ccc(NC(=O)C3CCCCC3)cc2s1	14.6 µM [falling, single point]	
Cc1ccc(COc2cccc3c2CCN(Cc2ccc(F)cc2)C3=O)cc1	23.1 µM [falling, single point]	

Individual results from the entries so far.
COc1cc(/C=N/NC(=O)[C@H](Cc2c[nH]c3ccccc23)NC(=O)OCC(C)C)cc([N+](=O)[O-])c1O | AC50 [2]: 18.4 µM [falling, single point]
COc1ccc(C)cc1NC(=O)CN(Cc1nnc(-c2ccc(Cl)cc2)o1)C1CCCC1 | AC50 [1]: 4.11 µM [rising, single point]
Cc1c(C(=O)O)c2cc(O)ccc2n1-c1ccccc1 | AC50 [1]: 1.46 µM [rising, partial curve, poor fit]
CCCc1ccc(-c2csc(NC(=O)C3=COCCO3)n2)cc1 | AC50 [1]: 0.92 µM [rising, full curve, poor fit]
CC(C)(C)n1cnc2cc(NC(=O)c3ccco3)ccc21 | AC50 [1]: 12.6 µM [falling, single point]

The listing continues:

Structure (SMILES)	AC50 [1]	AC50 [2]
CCC(=O)Nc1ccc(Nc2nc(C)c([N+](=O)[O-])c(Nc3ccc(NC(=O)CC)cc3)n2)cc1	18.4 µM [falling, single point]	
COc1ccc(-c2onc(C)c2-c2cscn2)c(O)c1	20 µM [rising, single point]	
O=C(COc1ccc(Cl)cc1[N+](=O)[O-])NC1CCCCC1	0.501 µM [rising, full curve, poor fit]	
c1ccc2c(-c3cn4ccccc4n3)c[nH]c2c1	15.8 µM [falling, single point]	
CCCc1[nH]nc2c1C(c1ccsc1)C(C#N)=C(N)O2 (stereo not given)		28.2 µM [falling, single point]
CCN(CC(=O)Nc1ccc(NC(C)=O)cc1)C(=O)c1cccc(S(=O)(=O)N2CCCC2)c1	3.26 µM [falling, full curve]	
COc1ccccc1C(=O)NCC(=O)N1CC=C(c2ccccc2)CC1	29.1 µM [falling, single point]	
COC(=O)C1=NN(C(=O)c2ccc(Cl)cc2)C(O)(c2ccccc2)C1 (stereo not given)	14.1 µM [falling, partial curve, poor fit]	
COc1cccc(Oc2ccc(C(F)(F)F)cc2N)c1	18.4 µM [rising, single point]	
CCOc1cc(C(=O)Nc2cc(C)on2)cc(OCC)c1OCC	0.461 µM [rising, partial curve, poor fit]	
CNC(=S)N1N=C(c2ccc(C)cc2)CC1c1ccc(Br)cc1 (stereo not given)	8.2 µM [rising, partial curve]	
O=C1CCN(Cc2ccc([N+](=O)[O-])cc2)CCN1[C@H](CO)Cc1ccccc1	1.26 µM [falling, partial curve, poor fit]	
O=C(Cn1cnc2cc([N+](=O)[O-])ccc2c1=O)Nc1ccc2c(c1)CCC2	29.1 µM [falling, single point]	
Cc1ccc(-c2csc3nc[nH]c(=S)c23)cc1		23.1 µM [falling, single point]
O=c1[nH]c(NCCO)nc2ncn(Cc3ccccc3)c12	4.11 µM [rising, partial curve, poor fit]	
Cc1cc(=O)oc2cc(OCC(=O)N3CCOCC3)ccc12	1.84 µM [rising, partial curve, poor fit]	
O=C(Nc1nnc(C2COc3ccccc3O2)o1)c1ccc(F)cc1 (stereo not given)	23.1 µM [falling, partial curve]	
COc1ccc(OC)c(/C=N/NC(=O)c2csc3ccccc23)c1	10 µM [falling, partial curve, poor fit]	
CSc1ccc(C(=O)C2CCCN(C(=O)c3nonc3C)C2)cc1 (stereo not given)	35.5 µM [falling, single point]	
CC12CCC(CC1=O)C2(C)C (stereo not given)	8.2 µM [rising, partial curve, poor fit]	
COc1ccc(C(=O)/C=C2\Sc3ccccc3N2C)cc1	22.4 µM [falling, single point]	
CCCC(=O)Nc1cccc(NC(=O)c2ccc3c(c2)OCO3)c1	0.651 µM [falling, full curve]	

Structure (SMILES)	AC50 [1]	AC50 [2]
C=COc1ccc(N2C(=O)c3ccccc3OC2C)cc1 (stereo not given)	11.2 µM [rising, single point]	
COc1ccccc1NC(=O)C(=O)N(c1cccnc1)C(C(=O)NC(C)(C)C)c1ccccc1F (stereo not given)	8.91 µM [rising, partial curve]	
O=C(COC(=O)c1ccccc1C(=O)c1ccccc1)Nc1ccc(SC(F)F)cc1	32.6 µM [falling, partial curve, poor fit]	
C[C@H](NC(=O)c1cc2c([nH]c3ccccc32)c(-c2ccccc2)n1)C(=O)O	8.91 µM [falling, partial curve, poor fit]	
OCCC1CN(Cc2ccc3ncccc3c2)CCN1Cc1ccccc1 (stereo not given)	35.5 µM [rising, single point]	
O=C(Nc1cccc2nsnc12)c1ccc2c(c1)OCO2	3.55 µM [falling, partial curve, poor fit]	
c1ccc(CNc2nc(N3CCN(Cc4ccccc4)CC3)nc3ccccc23)cc1	17.8 µM [falling, single point]	
O=C1C2CCCN2C(c2ccccc2)N1c1nccs1 (stereo not given)	22.4 µM [falling, partial curve, poor fit]	
Cc1occc1C(=O)Nc1sc2c(c1C(N)=O)CCC(C(C)(C)C)C2 (stereo not given)	16.4 µM [falling, partial curve]	
O=c1oc2ccccc2c2oc3cc(O)c(O)cc3c12	0.112 µM [rising, full curve, poor fit]	
COc1cccc2c1OCC/C2=N\NC(=O)COc1ccc(C)cc1	9.2 µM [rising, partial curve, poor fit]	
O=C(/C=C/c1ccc(Cl)cc1Cl)Nc1cccc(S(=O)(=O)NC2=NCCC2)c1	8.91 µM [falling, partial curve, poor fit]	
O=C(O)CSCCCC(=O)Nc1ccc(Br)cc1	22.4 µM [falling, single point]	
N=c1c2c(-c3ccccc3)c(-c3ccccc3)n(Cc3ccco3)c2ncn1CCCO	7.94 µM [falling, partial curve]	
COC(=O)c1sc(=S)n(-c2cccc(Cl)c2)c1N	0.562 µM [rising, full curve, poor fit]	
CC/C(=C(\c1ccc(O)cc1)c1ccc(OCCN(C)C)cc1)c1ccccc1	35.5 µM [falling, partial curve, poor fit]	
CC(C)(C)OC(=O)NCCCC[C@H](NC(=O)c1nc[nH]c1C(=O)N1CCN(c2ccccc2)CC1)C(=O)OC(C)(C)C	10 µM [rising, partial curve, poor fit]	
Cc1ccc(NC(=O)c2ccc3c(c2)OCCO3)cc1C	11.2 µM [falling, single point]	
Cc1cc2nc(-c3ccc(SCC(=O)N4CCOCC4)nc3)[nH]c2cc1C	11.6 µM [falling, partial curve, poor fit]	
CCCC(c1nnnn1C(C)(C)CC)N(CCCO)Cc1cc2cc(C)cc(C)c2[nH]c1=O (stereo not given)	11.6 µM [rising, partial curve, poor fit]	
